Reference: article doi:10.1101/2022.10.14.512051

Protein sequences, listed by entry. Tags and fused reporters are not part of them.
UniProt Q13620: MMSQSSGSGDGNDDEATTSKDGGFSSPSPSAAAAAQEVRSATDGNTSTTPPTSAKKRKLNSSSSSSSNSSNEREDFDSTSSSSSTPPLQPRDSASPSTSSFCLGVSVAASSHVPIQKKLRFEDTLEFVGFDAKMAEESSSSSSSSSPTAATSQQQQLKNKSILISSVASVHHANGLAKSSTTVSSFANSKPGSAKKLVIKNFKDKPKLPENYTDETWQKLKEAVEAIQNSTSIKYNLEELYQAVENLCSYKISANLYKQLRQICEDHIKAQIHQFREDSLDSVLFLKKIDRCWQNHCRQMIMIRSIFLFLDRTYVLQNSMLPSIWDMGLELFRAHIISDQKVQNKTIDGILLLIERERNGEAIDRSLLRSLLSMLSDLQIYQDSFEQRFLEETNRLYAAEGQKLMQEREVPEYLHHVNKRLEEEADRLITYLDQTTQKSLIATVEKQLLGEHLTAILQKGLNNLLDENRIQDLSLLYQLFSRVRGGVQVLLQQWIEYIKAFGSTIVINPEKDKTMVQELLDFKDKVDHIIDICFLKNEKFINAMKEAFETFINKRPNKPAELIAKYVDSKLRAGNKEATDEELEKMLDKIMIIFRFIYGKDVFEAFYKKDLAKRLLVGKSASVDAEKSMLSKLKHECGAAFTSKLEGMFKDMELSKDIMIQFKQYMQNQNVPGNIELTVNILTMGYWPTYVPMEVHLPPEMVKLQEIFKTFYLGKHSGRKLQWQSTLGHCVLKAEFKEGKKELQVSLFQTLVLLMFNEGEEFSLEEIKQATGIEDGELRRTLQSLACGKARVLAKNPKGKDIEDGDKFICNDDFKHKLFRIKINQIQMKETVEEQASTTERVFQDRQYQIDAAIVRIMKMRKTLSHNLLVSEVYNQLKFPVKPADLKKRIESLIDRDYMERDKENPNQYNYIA

Target: HA-tagged CUL4B, wild type (endogenously tagged) (human (endogenous in HeLa Kyoto)) (UniProt Q13620)
Experiment: affinity purification with mass spectrometry

binding | Binder
binds | LIS1 (endogenous) (protein, UniProt P43034 1-410) MVLSQRQRDELNRAIADYLRSNGYEEAYSVFKKEAELDVNEELDKKYAGLLEKKWTSVIRLQKKVMELESKLNEAKEEFTSGGPLGQKRDPKEWIPRPPEKYALSGHRSPVTRVIFHPVFSVMVSASEDATIKVWDYETGDFERTLKGHTDSVQDISFDHSGKLLASCSADMTIKLWDFQGFECIRTMHGHDHNVSSVAIMPNGDHIVSASRDKTIKMWEVQTGYCVKTFTGHREWVRMVRPNQDGTLIASCSNDQTVRVWVVATKECKAELREHEHVVECISWAPESSYSSISEATGSETKKSGKPGPFLLSGSRDKTIKMWDVSTGMCLMTLVGHDNWVRGVLFHSGGKFILSCADDKTLRVWDYKNKRCMKTLNAHEHFVTSLDFHKTAPYVVTGSVDQTVKVWECR
binds | WDR1 (endogenous) (protein, UniProt O75083 1-606) MPYEIKKVFASLPQVERGVSKIIGGDPKGNNFLYTNGKCVILRNIDNPALADIYTEHAHQVVVAKYAPSGFYIASGDVSGKLRIWDTTQKEHLLKYEYQPFAGKIKDIAWTEDSKRIAVVGEGREKFGAVFLWDSGSSVGEITGHNKVINSVDIKQSRPYRLATGSDDNCAAFFEGPPFKFKFTIGDHSRFVNCVRFSPDGNRFATASADGQIYIYDGKTGEKVCALGGSKAHDGGIYAISWSPDSTHLLSASGDKTSKIWDVSVNSVVSTFPMGSTVLDQQLGCLWQKDHLLSVSLSGYINYLDRNNPSKPLHVIKGHSKSIQCLTVHKNGGKSYIYSGSHDGHINYWDSETGENDSFAGKGHTNQVSRMTVDESGQLISCSMDDTVRYTSLMLRDYSGQGVVKLDVQPKCVAVGPGGYAVVVCIGQIVLLKDQRKCFSIDNPGYEPEVVAVHPGGDTVAIGGVDGNVRLYSILGTTLKDEGKLLEAKGPVTDVAYSHDGAFLAVCDASKVVTVFSVADGYSENNVFYGHHAKIVCLAWSPDNEHFASGGMDMMVYVWTLSDPETRVKIQDAHRLHHVSSLAWLDEHTLVTTSHDASVKEWTITY

No constants are given. Whether binding was seen depends on the method and setting. Binding seen in cells or lysates may run through a third protein. A yes stands for co-enrichment or nearness to the bait. Other partners may have been found.
